Assay results from PubChem BioAssay AID651789 (National Center for Advancing Translational Sciences (NCATS), 2012).
This list was built around the results that the source calls inconclusive (neither active nor inactive); the mix of calls is not that of the screen. Where the call is inconclusive, the potency comes from a doubtful curve fit. The source made the active and inactive calls. The call rests on the fitted dose curve; in most records, active means well fitted inhibition curve with a large enough effect; inconclusive means small, poorly fitted or top-dose-only effect; inactive means no such curve, though single readings can be large or run the other way.

test: Acumen qHTS Assay for Inhibitors of the mTORC1 Signaling Pathway in WT MEF Cells: Hit Validation; settings: Acumen imaging; series mostly up to 37.3 µM; further: nearly all actives have a fitted effect of over 60% in size
How it was run: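 Read-out is immunofluorescent phospho-rpS6 (Ser235/236) normalised to PI-stained cell number, reported as % active cells using a 7.5 nM rapamycin threshold. Cells: WT or Tsc2-/-, p53-/- MEFs, compound-exposed 24 h at 37C; PI count also tracks viability.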
Potency means the concentration at half of the fitted maximal effect.

Potency, inconclusive:
Cc1ccccc1Cn1c(CN2CCC(C(=O)NCCN(C)C)CC2)cc2ccccc21 5.85 µM [inhibitor, partial curve, poor fit]
COc1ccc(CC(=O)Nc2sc3c(c2C(=O)Nc2cccc(C)c2)CCCCC3)cc1 1.47 µM [inhibitor, full curve, poor fit]
Cc1ccc(-n2c(SCC(=O)Nc3cccc(Cl)c3)nc3n[nH]c(C)c3c2=N)cc1 26.1 µM [inhibitor, single point]
CC(C)CCNC(=O)c1cccc(Nc2nc3ccccc3n3nnnc23)c1 18.5 µM [inhibitor, single point]
CCOC(=O)c1cnc2ccc(C)cc2c1Nc1ccc(N(CC)CC)cc1 18.5 µM [inhibitor, single point]
COc1ccc2c(c1)CCc1c(C(=O)Nc3c(C)nn(Cc4ccc(Cl)cc4)c3C)noc1-2 26.1 µM [inhibitor, single point]
COc1ccc2nc(NC(=O)c3nc(S(=O)(=O)Cc4ccccc4)ncc3Cl)sc2c1 1.47 µM [inhibitor, full curve]
Cc1cc(C)c(NC(=O)Cn2c(=O)n(Cc3ccc(C(=O)NCc4ccc5c(c4)OCO5)cc3)c(=O)c3ccccc32)c(C)c1 3.69 µM [inhibitor, single point]
CCOC(=O)N1CCN(Cc2nc3cc(NC(=O)c4ccccc4OC)ccc3n2C(C)C)CC1 5.21 µM [inhibitor, partial curve, poor fit]
COc1cc(C(=O)Nc2ccc(NC(=O)c3ccc(C(C)(C)C)cc3)cc2)cc(OC)c1OC 16.5 µM [inhibitor, single point]
COc1ccc(NC(=O)c2nc(S(=O)(=O)Cc3ccc(C)cc3)ncc2Cl)cc1 2.93 µM [inhibitor, full curve]
O=C(CCOc1ccccc1)N(Cc1cccnc1)c1nc2c(F)cc(F)cc2s1 13.1 µM [inhibitor, single point]
Cc1cc(NC(=O)c2ccc(NC(=O)CCS(=O)(=O)c3cccs3)cc2)ccc1Br 20.7 µM [inhibitor, single point]
CCNc1nc2c(c(=O)[nH]c(=O)n2C)n1CC(O)COc1ccc(Cl)cc1Cl (centres undefined) 3.69 µM [inhibitor, single point]
Cc1cccc(OCC(=O)Nc2ccc(-c3nc4cc(C)ccc4o3)c(O)c2)c1 16.5 µM [inhibitor, single point]
N=c1n(CCN2CCCCC2)c2ccccc2n1CC(O)COc1ccc(Cl)cc1Cl (centres undefined) 18.5 µM [inhibitor, partial curve, poor fit]

Reprinted at random: 2 entries already listed.
Potency, inconclusive:
COc1ccc(NC(=O)c2nc(S(=O)(=O)Cc3ccc(C)cc3)ncc2Cl)cc1 2.93 µM [inhibitor, full curve]
COc1cc(C(=O)Nc2ccc(NC(=O)c3ccc(C(C)(C)C)cc3)cc2)cc(OC)c1OC 16.5 µM [inhibitor, single point]

Next part:

Potency, inactive:
NC(=O)c1ccc(-c2nc(-c3ccc4c(c3)OCO4)c(-c3ccccn3)[nH]2)cc1
CN1CCN(C2(CNC(=O)COc3ccc(C(C)(C)C)cc3)CCCCC2)CC1
COc1ccc(NC(=O)CSc2c3c(nc4ccccc24)CCC3)c(OC)c1
CCC1CN(C(=O)NCc2ccc(F)cc2)c2cc(C)ccc2O1 (centres undefined)
O=S(=O)(NCc1nc2cccnc2n1Cc1ccccc1Cl)c1ccc(F)c(Cl)c1
COc1cccc(C(=O)Nc2ccc(-c3cc(C(F)(F)F)nn3-c3ccccc3)cc2)c1
CCOc1cc(C2CC(=O)Nc3cc4c(cc32)OCCO4)ccc1O (centres undefined)
COc1cc(OC)cc(C(=O)NCCc2csc(-c3cccc(C)c3)n2)c1
CS(=O)c1ccc(-c2nc(-c3ccc(F)cc3)c(-c3ccncc3)[nH]2)cc1 (centres undefined)
Cc1cc(OCC(=O)Nc2cc(-c3nc4ccccc4[nH]3)ccc2C)ccc1Cl
COc1ccc(C)cc1NC(=O)CCNS(=O)(=O)c1cccc2nonc12
Cc1ccc(-c2nnn(CC(=O)N(CC(=O)NCCC(C)C)c3ccc(F)cc3)n2)cc1
COc1cc(NC(=O)c2cccc3c2C(=O)N(C2CCCCC2)C3)cc(OC)c1OC
CCCCNC(=O)CSc1nc2nc(C)c(Cc3ccccc3C)c(C)n2n1
CCS(=O)(=O)c1ccccc1C(=O)N(Cc1cccnc1)c1nc2cc(C)c(C)cc2s1
CCCCN1C(=O)C(O)(c2c(C)[nH]c3ccccc23)c2cc(Br)ccc21 (centres undefined)

Potency, active:
CCOc1cc(-c2nnc(SCC(=O)NCc3ccccc3)nc2-c2ccc(OC)c(OCC)c2)ccc1OC 0.927 µM
Cc1cccc(N2CCN(c3ncnc4c3nc3n4CCCCC3)CC2C)c1 (centres undefined) 11.7 µM
Cc1cccc(C2C=C(c3ccc(C)c(C)c3)Nc3nnnn32)c1 (centres undefined) 1.47 µM
CC(C)CS(=O)(=O)c1oc(-c2ccc(F)cc2)nc1S(=O)(=O)c1ccccc1 0.585 µM
CCOc1ccc(NC(=O)CSc2oc(-c3ccc(F)cc3)nc2S(=O)(=O)c2ccc(C)cc2)cc1 2.33 µM
CCc1ccc(NC(=O)C2CCCN(S(=O)(=O)c3c(C)noc3/C=C/N(C)C)C2)cc1 (centres undefined) 2.07 µM
COC(=O)c1c(C)oc2ccc(N(C(=O)c3ccncc3)S(=O)(=O)c3ccc(OC)cc3)cc12 4.14 µM
